# Laboratory results as given in patent US11220671B2, “Methods for the maturation of cardiomyocytes on amniotic fluid cell-derived ECM, cellular constructs, and uses for cardiotoxicity and proarrhythmic screening of drug compounds” (STEMBIOSYS, INC., priority 2019, dated 2022).
# Assay: Composition of amniotic fluid cell-derived ECM by mass spectrometry (total spectra count)
# Conditions: for Total Spectra Count Matrix A: protein component found by mass spectrometry in amniotic fluid cell-derived ECM Matrix A (Example 1); for Total Spectra Count Matrix B: protein component found by mass spectrometry in amniotic fluid cell-derived ECM Matrix B (Example 1); for Total Spectra Count Matrix C: protein component found by mass spectrometry in amniotic fluid cell-derived ECM Matrix C (Example 1); for Total Spectra Count Matrix D: protein component found by mass spectrometry in amniotic fluid cell-derived ECM Matrix D (Example 1)
Molecule,Total Spectra Count Matrix A,Total Spectra Count Matrix B,Total Spectra Count Matrix C,Total Spectra Count Matrix D
"SWISS-PROT: Q9DCV7 Tax_Id = 10090 Gene_Symbol = Krt7 Keratin, type II cytoskeletal 7 (protein, UniProt Q9DCV7 2-457, looked up) Keratin, type II cytoskeletal …: SIHFSSRSTAYPGRGAQVRLSSGRASFGSRSLYGLGSSRPRVAVRSAYGGPVGAGIREITINQSLLAPLSVDIDPTIQQVRQEEREQIKTLNNKFASFIDKVRFLEQQNKMLETKWALLQEQKSAKSSQLPRIFEAQIAGLRQQLETLQLDGGRLEVELRNMQDVVEDFKNKYEEEINRRTAAENEFVLLKKDVDAAYTNKVELEAKADSLQDEINFLKTLHETELAELQSQISDTSVVLSMDNSRSLDLDGIIADVKAQYEEMANHSRAEAEAWYQTKFETLQAQAGKHGDDLRNTRNEIAEMNRSIQRLQAEIDTLKNQRAKLESSIAEAEEQGELAIKDAHAKQGELEAALQKAKQDVARQLREYQELLNTKLALDIEIATYRKLLEGEESRLSGDGMGPVNISVVNSTGGNGGKLIFGGTMGSNALSFSGGPGALRAYSIKTTSTTRRGTHN",14,0,14,18
"Ribonuclease inhibitor (protein, UniProt P13489 2-461, looked up) Ribonuclease inhibitor: SLDIQSLDIQCEELSDARWAELLPLLQQCQVVRLDDCGLTEARCKDISSALRVNPALAELNLRSNELGDVGVHCVLQGLQTPSCKIQKLSLQNCCLTGAGCGVLSSTLRTLPTLQELHLSDNLLGDAGLQLLCEGLLDPQCRLEKLQLEYCSLSAASCEPLASVLRAKPDFKELTVSNNDINEAGVRVLCQGLKDSPCQLEALKLESCGVTSDNCRDLCGIVASKASLRELALGSNKLGDVGMAELCPGLLHPSSRLRTLWIWECGITAKGCGDLCRVLRAKESLKELSLAGNELGDEGARLLCETLLEPGCQLESLWVKSCSFTAACCSHFSSVLAQNRFLLELQISNNRLEDAGVRELCQGLGQPGSVLRVLWLADCDVSDSSCSSLAATLLANHSLRELDLSNNCLGDAGILQLVESVRQPGCLLEQLVLYDIYWSEEMEDRLQALEKDKPSLRVIS",14,0,1,8
"Staphylococcal nuclease domain-containing protein 1 (protein, UniProt Q7KZF4 2-910, looked up) Staphylococcal nuclease …: ASSAQSGGSSGGPAVPTVQRGIIKMVLSGCAIIVRGQPRGGPPPERQINLSNIRAGNLARRAAATQPDAKDTPDEPWAFPAREFLRKKLIGKEVCFTIENKTPQGREYGMIYLGKDTNGENIAESLVAEGLATRREGMRANNPEQNRLSECEEQAKAAKKGMWSEGNGSHTIRDLKYTIENPRHFVDSHHQKPVNAIIEHVRDGSVVRALLLPDYYLVTVMLSGIKCPTFRREADGSETPEPFAAEAKFFTESRLLQRDVQIILESCHNQNILGTILHPNGNITELLLKEGFARCVDWSIAVYTRGAEKLRAAERFAKERRLRIWRDYVAPTANLDQKDKQFVAKVMQVLNADAIVVKLNSGDYKTIHLSSIRPPRLEGENTQDKNKKLRPLYDIPYMFEAREFLRKKLIGKKVNVTVDYIRPASPATETVPAFSERTCATVTIGGINIAEALVSKGLATVIRYRQDDDQRSSHYDELLAAEARAIKNGKGLHSKKEVPIHRVADISGDTQKAKQFLPFLQRAGRSEAVVEYVFSGSRLKLYLPKETCLITFLLAGIECPRGARNLPGLVQEGEPFSEEATLFTKELVLQREVEVEVESMDKAGNFIGWLHIDGANLSVLLVEHALSKVHFTAERSSYYKSLLSAEEAAKQKKEKVWAHYEEQPVEEVMPVLEEKERSASYKPVFVTEITDDLHFYVQDVETGTQLEKLMENMRNDIASHPPVEGSYAPRRGEFCIAKFVDGEWYRARVEKVESPAKIHVFYIDYGNREVLPSTRLGTLSPAFSTRVLPAQATEYAFAFIQVPQDDDARTDAVDSVVRDIQNTQCLLNVEHLSAGCPHVTLQFADSKGDVGLGLVKEGLVMVEVRKEKQFQKVITEYLNAQESAKSARLNLWRYGDFRADDADEFGYSR",15,33,0,6
"Serpin H1 (protein, UniProt P50454 19-418, looked up) Serpin H1: AEVKKPAAAAAPGTAEKLSPKAATLAERSAGLAFSLYQAMAKDQAVENILVSPVVVASSLGLVSLGGKATTASQAKAVLSAEQLRDEEVHAGLGELLRSLSNSTARNVTWKLGSRLYGPSSVSFADDFVRSSKQHYNCEHSKINFRDKRSALQSINEWAAQTTDGKLPEVTKDVERTDGALLVNAMFFKPHWDEKFHHKMVDNRGFMVTRSYTVGVMMMHRTGLYNYYDDEKEKLQIVEMPLAHKLSSLIILMPHHVEPLERLEKLLTKEQLKIWMGKMQKKAVAISLPKGVVEVTHDLQKHLAGLGLTEAIDKNKADLSRMSGKKDLYLASVFHATAFELDTDGNPFDQDIYGREELRSPKLFYADHPFIFLVRDTQSGSLLFIGRLVRPKGDKMRDEL",64,731,128,97
"Alpha-actinin-1 (protein, UniProt P12814 1-892, looked up) Alpha-actinin-1: MDHYDSQQTNDYMQPEEDWDRDLLLDPAWEKQQRKTFTAWCNSHLRKAGTQIENIEEDFRDGLKLMLLLEVISGERLAKPERGKMRVHKISNVNKALDFIASKGVKLVSIGAEEIVDGNVKMTLGMIWTIILRFAIQDISVEETSAKEGLLLWCQRKTAPYKNVNIQNFHISWKDGLGFCALIHRHRPELIDYGKLRKDDPLTNLNTAFDVAEKYLDIPKMLDAEDIVGTARPDEKAIMTYVSSFYHAFSGAQKAETAANRICKVLAVNQENEQLMEDYEKLASDLLEWIRRTIPWLENRVPENTMHAMQQKLEDFRDYRRLHKPPKVQEKCQLEINFNTLQTKLRLSNRPAFMPSEGRMVSDINNAWGCLEQVEKGYEEWLLNEIRRLERLDHLAEKFRQKASIHEAWTDGKEAMLRQKDYETATLSEIKALLKKHEAFESDLAAHQDRVEQIAAIAQELNELDYYDSPSVNARCQKICDQWDNLGALTQKRREALERTEKLLETIDQLYLEYAKRAAPFNNWMEGAMEDLQDTFIVHTIEEIQGLTTAHEQFKATLPDADKERLAILGIHNEVSKIVQTYHVNMAGTNPYTTITPQEINGKWDHVRQLVPRRDQALTEEHARQQHNERLRKQFGAQANVIGPWIQTKMEEIGRISIEMHGTLEDQLSHLRQYEKSIVNYKPKIDQLEGDHQLIQEALIFDNKHTNYTMEHIRVGWEQLLTTIARTINEVENQILTRDAKGISQEQMNEFRASFNHFDRDHSGTLGPEEFKACLISLGYDIGNDPQGEAEFARIMSIVDPNRLGVVTFQAFIDFMSRETADTDTADQVMASFKILAGDKNYITMDELRRELPPDQAEYCIARMAPYTGPDSVPGALDYMSFSTALYGESDL",62,217,19,77
